In paper PMC5846053:

T1: BD-PevD1 (PevD1 without the signal peptide sequence in pGBKT7) (Verticillium dahliae) (UniProt G2WWV6)
T1 sequence: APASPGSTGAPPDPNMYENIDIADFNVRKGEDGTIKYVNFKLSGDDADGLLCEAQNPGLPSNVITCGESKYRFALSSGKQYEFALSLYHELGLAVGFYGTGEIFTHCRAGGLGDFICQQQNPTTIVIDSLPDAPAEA


How the values were obtained:
[1] = molecular target: T1, BD-PevD1 (PevD1 without the signal peptide sequence in pGBKT7) (Verticillium dahliae); assay: two-hybrid; Matchmaker Gold system, Y2H gold yeast; PevD1 in pGBKT7 (BD), Nbnrp1 and fragments in pGADT7 (AD); growth on SD/-Ade/-His/-Leu/-Trp with Aureobasidin A and x-α-gal
[2] = molecular target: GST-Nbnrp1 (Nicotiana benthamiana); assay: pull-down; GST pull-down: 6 × His tagged PevD1 and GST-fused protein mixed with GST affinity resin at 4°C for 4 h, washed with PBS, eluted with PBS, 20 mM GSH; Western blot with anti-His and anti-GST; both purified
[3] = molecular target: GST-Nbnrp1ΔN (Nicotiana benthamiana); assay: as above

Row | Molecule | binding [1] | binding [2] | binding [3]
1 | AD-Nbnrp1ΔC (residues 1-199, N-rich domain) in pGADT7 (Nicotiana benthamiana) (domain or fragment) | no binding | – | –
2 | AD-Nbnrp1ΔN (residues 200-332, DCD domain) in pGADT7 (Nicotiana benthamiana) (domain or fragment) | binds | – | –
3 | 6 × His tagged PevD1 (protein, UniProt G2WWV6 19-155) APASPGSTGAPPDPNMYENIDIADFNVRKGEDGTIKYVNFKLSGDDADGLLCEAQNPGLPSNVITCGESKYRFALSSGKQYEFALSLYHELGLAVGFYGTGEIFTHCRAGGLGDFICQQQNPTTIVIDSLPDAPAEA | – | binds | binds

No constants are given. Whether binding was seen depends on the method and setting. Binding calls can cover weak binding; strength is not graded here. Sequences can lack the tags named with a protein.
